Assay results published in publication PMC8531446, “Light-triggered and phosphorylation-dependent 14-3-3 association with NON-PHOTOTROPIC HYPOCOTYL 3 is required for hypocotyl phototropism” (Nature Communications, 2021).

T1: 14-3-3 epsilon:GFP (Arabidopsis thaliana) (UniProt P48347)
T1 sequence: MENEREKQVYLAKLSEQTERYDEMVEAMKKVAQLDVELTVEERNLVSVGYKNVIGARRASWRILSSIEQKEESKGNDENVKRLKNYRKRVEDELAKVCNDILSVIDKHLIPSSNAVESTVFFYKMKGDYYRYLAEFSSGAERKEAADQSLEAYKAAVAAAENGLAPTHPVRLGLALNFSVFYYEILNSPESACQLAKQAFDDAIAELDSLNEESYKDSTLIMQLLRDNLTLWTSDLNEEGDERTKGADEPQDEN

B1: sucrose phosphate synthase 1 (protein, UniProt Q94BT0 1-1043)
chain: MAGNDWVNSYLEAILDVGQGLDDARSSPSLLLRERGRFTPSRYFVEEVITGYDETDLHRSWVKAVATRSPQERNTRLENMCWRIWNLARQKKQHEEKEAQRLAKRRLEREKGRREATADMSEEFSEGEKGDIISDISTHGESTKPRLPRINSAESMELWASQQKGNKLYLVLISLHGLIRGENMELGRDSDTGGQVKYVVELARALGSMPGVYRVDLLTRQVSSPDVDYSYGEPTEMLTPRDSEDFSDEMGESSGAYIVRIPFGPKDKYIPKELLWPHIPEFVDGAMSHIMQMSNVLGEQVGVGKPIWPSAIHGHYADAGDATALLSGALNVPMLLTGHSLGRDKLEQLLRQGRLSKEEINSTYKIMRRIEGEELSLDVSEMVITSTRQEIDEQWRLYDGFDPILERKLRARIKRNVSCYGRFMPRMVKIPPGMEFNHIVPHGGDMEDTDGNEEHPTSPDPPIWAEIMRFFSNSRKPMILALARPDPKKNITTLVKAFGECRPLRELANLALIMGNRDGIDEMSSTSSSVLLSVLKLIDKYDLYGQVAYPKHHKQSDVPDIYRLAAKSKGVFINPAIIEPFGLTLIEAAAHGLPMVATKNGGPVDIHRVLDNGLLVDPHDQQSISEALLKLVADKHLWAKCRQNGLKNIHQFSWPEHCKTYLSRITSFKPRHPQWQSDDGGDNSEPESPSDSLRDIQDISLNLKFSFDGSGNDNYMNQEGSSMDRKSKIEAAVQNWSKGKDSRKMGSLERSEVNSGKFPAVRRRKFIVVIALDFDGEEDTLEATKRILDAVEKERAEGSVGFILSTSLTISEVQSFLVSGGLNPNDFDAFICNSGSDLHYTSLNNEDGPFVVDFYYHSHIEYRWGGEGLRKTLIRWASSLNEKKADNDEQIVTLAEHLSTDYCYTFTVKKPAAVPPVRELRKLLRIQALRCHVVYSQNGTRINVIPVLASRIQALRYLFVRWGIDMAKMAVFVGESGDTDYEGLLGGLHKSVVLKGVSCSACLHANRSYPLTDVISFESNNVVHASPDSDVRDALKKLELLKD
B2: cytosolic invertase 1 (protein, UniProt Q9LQF2 1-551)
chain: MEGVGLRAVGSHCSLSEMDDLDLTRALDKPRLKIERKRSFDERSMSELSTGYSRHDGIHDSPRGRSVLDTPLSSARNSFEPHPMMAEAWEALRRSMVFFRGQPVGTLAAVDNTTDEVLNYDQVFVRDFVPSALAFLMNGEPDIVKHFLLKTLQLQGWEKRVDRFKLGEGVMPASFKVLHDPIRETDNIVADFGESAIGRVAPVDSGFWWIILLRAYTKSTGDLTLSETPECQKGMKLILSLCLAEGFDTFPTLLCADGCSMIDRRMGVYGYPIEIQALFFMALRSALSMLKPDGDGREVIERIVKRLHALSFHMRNYFWLDHQNLNDIYRFKTEEYSHTAVNKFNVMPDSIPEWVFDFMPLRGGYFVGNVGPAHMDFRWFALGNCVSILSSLATPDQSMAIMDLLEHRWAELVGEMPLKICYPCLEGHEWRIVTGCDPKNTRWSYHNGGSWPVLLWQLTAACIKTGRPQIARRAVDLIESRLHRDCWPEYYDGKLGRYVGKQARKYQTWSIAGYLVAKMLLEDPSHIGMISLEEDKLMKPVIKRSASWPQL
B3: phytochrome A (protein, UniProt P14712 1-1122)
chain: MSGSRPTQSSEGSRRSRHSARIIAQTTVDAKLHADFEESGSSFDYSTSVRVTGPVVENQPPRSDKVTTTYLHHIQKGKLIQPFGCLLALDEKTFKVIAYSENASELLTMASHAVPSVGEHPVLGIGTDIRSLFTAPSASALQKALGFGDVSLLNPILVHCRTSAKPFYAIIHRVTGSIIIDFEPVKPYEVPMTAAGALQSYKLAAKAITRLQSLPSGSMERLCDTMVQEVFELTGYDRVMAYKFHEDDHGEVVSEVTKPGLEPYLGLHYPATDIPQAARFLFMKNKVRMIVDCNAKHARVLQDEKLSFDLTLCGSTLRAPHSCHLQYMANMDSIASLVMAVVVNEEDGEGDAPDATTQPQKRKRLWGLVVCHNTTPRFVPFPLRYACEFLAQVFAIHVNKEVELDNQMVEKNILRTQTLLCDMLMRDAPLGIVSQSPNIMDLVKCDGAALLYKDKIWKLGTTPSEFHLQEIASWLCEYHMDSTGLSTDSLHDAGFPRALSLGDSVCGMAAVRISSKDMIFWFRSHTAGEVRWGGAKHDPDDRDDARRMHPRSSFKAFLEVVKTRSLPWKDYEMDAIHSLQLILRNAFKDSETTDVNTKVIYSKLNDLKIDGIQELEAVTSEMVRLIETATVPILAVDSDGLVNGWNTKIAELTGLSVDEAIGKHFLTLVEDSSVEIVKRMLENALEGTEEQNVQFEIKTHLSRADAGPISLVVNACASRDLHENVVGVCFVAHDLTGQKTVMDKFTRIEGDYKAIIQNPNPLIPPIFGTDEFGWCTEWNPAMSKLTGLKREEVIDKMLLGEVFGTQKSCCRLKNQEAFVNLGIVLNNAVTSQDPEKVSFAFFTRGGKYVECLLCVSKKLDREGVVTGVFCFLQLASHELQQALHVQRLAERTAVKRLKALAYIKRQIRNPLSGIMFTRKMIEGTELGPEQRRILQTSALCQKQLSKILDDSDLESIIEGCLDLEMKEFTLNEVLTASTSQVMMKSNGKSVRITNETGEEVMSDTLYGDSIRLQQVLADFMLMAVNFTPSGGQLTVSASLRKDQLGRSVHLANLEIRLTHTGAGIPEFLLNQMFGTEEDVSEEGLSLMVSRKLVKLMNGDVQYLRQAGKSSFIITAELAAANK
B4: NPH3, endogenous in Arabidopsis seedlings (protein, UniProt Q9FMF5 1-746)
chain: MMWESESDGGVGVGGGGGREYGDGVLSSNKHGGVKTDGFELRGQSWFVATDIPSDLLVKIGDMNFHLHKYPLLSRSGKMNRLIYESRDPDPTILILDDLPGGPEAFELASKFCYGVPVDLTATNISGLRCAAEYLEMTEDLEEGNLIFKTEAFLSYVVLSSWRDSILVLKSCEKLSPWAENLQIVRRCSESIAWKACSNPKGIRWAYTGKAPSPSTTNFAGSSPRWNESKDSSFYCSPSRNTNSQPVPPDWWFEDVSILRIDHFVRVITAIKVKGMRFELLGAVIMHYAGKWLPGLIKEGGVAIAPAMSSAIGGGLGLGGDEMSISCGSNSSGGSSGPDWKGGLHMVLSAGKTNGHQDSVACLAGLGISPKDQRMIVESLISIIPPQKDSVTCSFLLRLLRAANMLKVAPALITELEKRVGMQFEQATLQDLLIPGYNNKGETMYDVDLVQRLLEHFLVQEQTEGSSPSRMSPSPSQSMYADIPRGNNNNGGGGGGNNQNAKMRVARLVDSYLTEVARDRNLPLTKFQVLAEALPESARTCDDGLYRAIDSYLKAHPTLSEHERKRLCRVMDCQKLSMDACMHAAQNERLPLRVVVQVLFSEQVKISNALANTSLKESTTLGEAMGTYQPMIPNRKTLIEATPQSFQEGWAAAKKDINTLKFELETVKTKYVELQNEMEVMQRQFEKTGKVKNTPSSSAWTSGWKKLSKLTKMSGQESHDISSGGEQAGVDHPPPRKPRRWRNSIS

What follows are binders tested against T1, 14-3-3 epsilon:GFP (Arabidopsis thaliana) (assay: affinity purification with mass spectrometry; 3-day-old etiolated Arabidopsis seedlings expressing 14-3-3 epsilon:GFP (native promoter), kept in darkness or irradiated with blue light (1 μmol m^-2 s^-1, 30 min); GFP-Trap beads, lysis buffer 50 mM Tris pH 7.5, 150 mM NaCl, 1% Triton X-100; LC-MS/MS; UBQ10::GFP as control; two biological replicates).

Row | binding | Binder
1 | binds | B1
2 | binds | B2
3 | binds | B3
4 | binds | B4

No constants are given. Whether binding was seen depends on the method and setting. Binding seen in cells or lysates may run through a third protein. A yes stands for co-enrichment or nearness to the bait. Other partners may have been found. Sequences can lack the tags named with a protein.
